# Laboratory results taken from PubChem BioAssay AID2685 (National Center for Advancing Translational Sciences (NCATS), 2010).
# The list shows a part of the results. The main result of the screen is listed elsewhere. These columns were measured beside it and carry no call. Most of these compounds were active or inconclusive in the main read-out, so they are no random draw. The note in brackets gives the kind of curve behind each potency; many fits are weak.
# Experiment: qHTS Assay for Lipid Storage Modulators in Drosophila S3 Cells;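 on cell number change: cells counted by Cell Tracker Red CMTPX staining in the red channel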
# Conditions: BODIPY lipid droplet fluorescence, 18-24 h; for cell number change: measured here: cell count max response, cells fed with added oleic acid
# Procedure, shortened: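 Drosophila S3 cells got compounds at several concentrations plus oleic acid (400 uM solution). Laser-scanning cytometry with 488 nm excitation read lipid droplets at 500-530 nm and cells at 575-640 nm. Percent activity was relative to 20 uM Triacsin C.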
# [1] = measured here: lipid fluorescence (Fed channel) AC50, cells fed with added oleic acid
# [2] = measured here: cell number channel AC50, cells fed with added oleic acid
SMILES,cell number change [%],AC50 [1],AC50 [2]
COc1ccccc1N1CCN(Cc2cc3c(cc2O)OCO3)CC1,1.28,"29.1 µM [falling, single point]",
COc1ccc(C(=O)N[C@H](C(=O)NCc2cccs2)C(C)C)cc1,,,"0.0731 µM [rising, partial curve, poor fit]"
Cc1nc(N2CCN(S(=O)(=O)c3ccccc3C#N)CC2)c2c(-c3ccccc3)csc2n1,-5.23,"0.58 µM [falling, single point]",
O=C1NC2(CCCCC2)C(=O)N1Cc1cc(=O)n2ccsc2n1,-21,"3.66 µM [falling, single point]",
O=C(Nc1ccc(N2CCOCC2)cc1)C1CCN(C(=O)OCc2ccccc2)CC1,-16,"0.651 µM [falling, single point]",
c1cc(CNc2ccc(N3CCOCC3)cc2)ccn1,10.3,"29.1 µM [falling, single point]",
CCOC(=O)CSc1ncnc2c1cnn2-c1ccc(C)cc1,-3.83,,
CCCNC(=O)C1Cc2cc(S(=O)(=O)N3CCCC3)ccc2N1C(C)=O (centres undefined),,,"0.0058 µM [falling, full curve, poor fit]"
Cc1ccc(N2CC(C(=O)N3CCN(c4ccccc4)CC3)CC2=O)cc1 (centres undefined),-20.3,,"0.651 µM [falling, full curve]"
COC(=O)c1ccccc1NC(=O)/C=C/c1cc(OC)c(OC)c(OC)c1,-19.8,,"0.731 µM [rising, partial curve, poor fit]"
Cc1ccc(-n2nc(C)c3c2OC(N)=C(C#N)C3c2ccccc2F)cc1 (centres undefined),-25.6,"25.9 µM [falling, partial curve, poor fit]",
CCCC(CCC(=O)Nc1ccc(S(N)(=O)=O)cc1)C(=O)O (centres undefined),-43.5,"0.651 µM [falling, single point]","0.00651 µM [falling, full curve, poor fit]"
O=C(C[n+]1cccc(C(=O)N/N=C/c2ccc(Br)cc2)c1)c1ccccc1,0.268,"29.1 µM [rising, single point]",
Cc1nc(C)c(C(=O)Nc2ncc([N+](=O)[O-])s2)o1,-53.6,"0.651 µM [falling, full curve]","2.91 µM [falling, partial curve]"
O=C(CSc1ncccn1)N/N=C/c1ccc2c(c1)OCO2,68.8,"29.1 µM [rising, single point]","2.91 µM [rising, partial curve]"
O=C(CSc1ncnc2c1nnn2-c1ccc(F)cc1)NCc1ccco1,-43.1,"23.1 µM [falling, single point]","23.1 µM [falling, partial curve, poor fit]"
Cc1cc(C)nc(SCC(=O)N/N=C/C=C/c2ccccc2)n1,6.26,,"6.51 µM [falling, single point]"
Cc1c(F)cccc1NS(=O)(=O)c1ccc2c(c1)c(=O)n(C)c(=O)n2C,3.75,,
Cc1ccc(S(=O)(=O)N2CCN(S(C)(=O)=O)C2c2ccccc2)cc1 (centres undefined),-88.6,"23.1 µM [falling, partial curve]","23.1 µM [falling, partial curve]"

# Reprinted at random: 3 entries already listed
SMILES,cell number change [%],AC50 [1],AC50 [2]
COc1ccccc1N1CCN(Cc2cc3c(cc2O)OCO3)CC1,1.28,"29.1 µM [falling, single point]",
O=C(CSc1ncccn1)N/N=C/c1ccc2c(c1)OCO2,68.8,"29.1 µM [rising, single point]","2.91 µM [rising, partial curve]"
c1cc(CNc2ccc(N3CCOCC3)cc2)ccn1,10.3,"29.1 µM [falling, single point]",

# (continued)

SMILES,cell number change [%],AC50 [1],AC50 [2]
N#CCCN(C(=O)COC(=O)c1ccc2ccccc2n1)c1ccccc1,13.6,"0.103 µM [rising, full curve, poor fit]",
COc1c(C)cccc1C(=O)Nc1cc(Cl)ccc1N1CCOCC1,,"2.06 µM [rising, partial curve]","2.06 µM [rising, partial curve]"
Cc1ccc(C(=O)OCC(=O)NC2CCCC(C)C2C)cc1S(=O)(=O)N1CCCCC1 (centres undefined),-0.188,"2.31 µM [falling, full curve]",
O=C(c1cc(-c2cccnc2)nc2ccccc12)N1CCCc2ccccc21,27.2,"1.84 µM [rising, partial curve, poor fit]",
O=C(Oc1cccc(-c2cnc3ccccc3n2)c1)c1ccco1,-33.8,,"16.4 µM [falling, partial curve, poor fit]"
COc1ccccc1CC(=O)Nc1ccc2c(c1)C(=O)NC2=O,19.1,,"0.00461 µM [falling, full curve, poor fit]"
CCCCNC(=O)c1ccccc1NC(=O)CCC,-3.5,"6.51 µM [falling, single point]","6.51 µM [falling, single point]"
C=CCNC(=O)CSc1ncc2c(n1)-c1c(csc1SC)CC2,26,"0.0326 µM [rising, full curve, poor fit]",
CSc1nc2sc3c(c2c2nncn12)CCC3,,"2.91 µM [rising, full curve]",
CC1(C)Cc2c(cnn2-c2ccccc2)C(NC(=O)CCc2ccncc2)C1 (centres undefined),-8.91,"29.1 µM [rising, single point]",
COc1cccc(/C=N/Nc2ncnc(Cl)c2N)c1O,-35.1,"25.9 µM [falling, single point]","20.6 µM [falling, single point]"
CC1=CCC2C(=O)N(c3cccc(C(=O)Nc4ccc(Cl)cc4)c3)C(=O)C2C1 (centres undefined),-45.3,,
COc1ccccc1C(=O)NC(=O)COC(=O)c1ccc(Cl)nc1,,"32.6 µM [rising, single point]",
N#Cc1cc2c(nc1SCC(=O)Nc1sc3c(c1C#N)CCC3)CCCCCC2,2.89,"0.731 µM [rising, partial curve, poor fit]","1.46 µM [rising, partial curve]"
CS(=O)(=O)Cc1ccc(C(=O)N2CCCC2c2cccs2)cc1 (centres undefined),12.2,,
CN(C)S(=O)(=O)c1cccc(-c2cn3cccnc3n2)c1,28.5,"5.17 µM [rising, partial curve]",
Cc1cc(=O)[nH]c(N=N/C(=N/Nc2ccccc2C)c2ccccc2)n1,0.884,"4.61 µM [rising, single point]",
CCOC(=O)c1nnc(-c2ccc(C)cc2)nc1Oc1ccc(Cl)cc1Cl,17.8,"3.26 µM [falling, single point]",
